Test results: the supplement of paper PMC12823440, “Inhibitors supercharge kinase turnover through native proteolytic circuits” (Nature, 2025)
The other results are listed elsewhere or left out. The calls rarely recur for the same compound in another form.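 In K562 cells expressing nanoluciferase-fused kinases, luminescence was recorded at 4 h intervals between 2 and 18 h, normalized as percent of control with DMSO at 100% and a positive control at 0%. A significant (2 sigma) signal drop marks a time point as decreased. The authors' rule for a hit is not shown and takes in more than the number of time points.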

By UniProt entry, the sequences of proteins in these tests, tags left out. Where a name states a change or a piece, a line headed by the entry shows the natural chain unless it says otherwise.
UniProt P29317, whole entry: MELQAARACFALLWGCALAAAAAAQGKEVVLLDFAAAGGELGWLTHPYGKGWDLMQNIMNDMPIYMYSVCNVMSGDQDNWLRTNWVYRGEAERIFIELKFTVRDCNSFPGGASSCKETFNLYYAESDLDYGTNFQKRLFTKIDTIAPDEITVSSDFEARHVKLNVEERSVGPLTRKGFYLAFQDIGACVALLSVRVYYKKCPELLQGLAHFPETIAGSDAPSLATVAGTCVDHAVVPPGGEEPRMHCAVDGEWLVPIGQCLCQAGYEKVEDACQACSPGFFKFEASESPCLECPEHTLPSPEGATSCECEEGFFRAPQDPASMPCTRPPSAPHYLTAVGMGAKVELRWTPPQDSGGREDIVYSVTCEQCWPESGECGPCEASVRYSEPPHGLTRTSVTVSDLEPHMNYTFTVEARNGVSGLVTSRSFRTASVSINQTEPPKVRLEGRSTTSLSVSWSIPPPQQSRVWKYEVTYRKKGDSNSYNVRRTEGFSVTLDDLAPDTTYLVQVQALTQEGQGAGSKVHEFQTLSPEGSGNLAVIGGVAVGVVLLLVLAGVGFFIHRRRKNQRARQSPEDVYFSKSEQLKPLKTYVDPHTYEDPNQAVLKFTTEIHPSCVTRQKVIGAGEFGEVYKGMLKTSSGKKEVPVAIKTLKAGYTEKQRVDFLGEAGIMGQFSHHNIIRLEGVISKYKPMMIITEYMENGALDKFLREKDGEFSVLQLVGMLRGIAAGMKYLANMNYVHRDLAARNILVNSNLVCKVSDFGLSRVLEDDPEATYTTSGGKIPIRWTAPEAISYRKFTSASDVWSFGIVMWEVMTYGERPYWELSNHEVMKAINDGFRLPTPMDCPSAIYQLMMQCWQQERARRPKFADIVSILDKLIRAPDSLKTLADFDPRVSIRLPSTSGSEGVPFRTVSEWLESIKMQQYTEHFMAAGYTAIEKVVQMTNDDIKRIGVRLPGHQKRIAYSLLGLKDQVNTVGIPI
UniProt P28482, whole entry: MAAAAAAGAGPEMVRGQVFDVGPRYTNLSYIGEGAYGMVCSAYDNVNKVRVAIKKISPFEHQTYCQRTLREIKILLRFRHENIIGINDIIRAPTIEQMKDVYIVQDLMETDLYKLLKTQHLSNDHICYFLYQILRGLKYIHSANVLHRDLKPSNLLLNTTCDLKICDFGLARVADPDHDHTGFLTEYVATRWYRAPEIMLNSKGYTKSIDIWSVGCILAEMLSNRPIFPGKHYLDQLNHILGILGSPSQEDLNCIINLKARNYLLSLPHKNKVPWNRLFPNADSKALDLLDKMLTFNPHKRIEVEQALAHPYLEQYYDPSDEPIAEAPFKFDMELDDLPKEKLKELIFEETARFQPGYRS
UniProt O75460: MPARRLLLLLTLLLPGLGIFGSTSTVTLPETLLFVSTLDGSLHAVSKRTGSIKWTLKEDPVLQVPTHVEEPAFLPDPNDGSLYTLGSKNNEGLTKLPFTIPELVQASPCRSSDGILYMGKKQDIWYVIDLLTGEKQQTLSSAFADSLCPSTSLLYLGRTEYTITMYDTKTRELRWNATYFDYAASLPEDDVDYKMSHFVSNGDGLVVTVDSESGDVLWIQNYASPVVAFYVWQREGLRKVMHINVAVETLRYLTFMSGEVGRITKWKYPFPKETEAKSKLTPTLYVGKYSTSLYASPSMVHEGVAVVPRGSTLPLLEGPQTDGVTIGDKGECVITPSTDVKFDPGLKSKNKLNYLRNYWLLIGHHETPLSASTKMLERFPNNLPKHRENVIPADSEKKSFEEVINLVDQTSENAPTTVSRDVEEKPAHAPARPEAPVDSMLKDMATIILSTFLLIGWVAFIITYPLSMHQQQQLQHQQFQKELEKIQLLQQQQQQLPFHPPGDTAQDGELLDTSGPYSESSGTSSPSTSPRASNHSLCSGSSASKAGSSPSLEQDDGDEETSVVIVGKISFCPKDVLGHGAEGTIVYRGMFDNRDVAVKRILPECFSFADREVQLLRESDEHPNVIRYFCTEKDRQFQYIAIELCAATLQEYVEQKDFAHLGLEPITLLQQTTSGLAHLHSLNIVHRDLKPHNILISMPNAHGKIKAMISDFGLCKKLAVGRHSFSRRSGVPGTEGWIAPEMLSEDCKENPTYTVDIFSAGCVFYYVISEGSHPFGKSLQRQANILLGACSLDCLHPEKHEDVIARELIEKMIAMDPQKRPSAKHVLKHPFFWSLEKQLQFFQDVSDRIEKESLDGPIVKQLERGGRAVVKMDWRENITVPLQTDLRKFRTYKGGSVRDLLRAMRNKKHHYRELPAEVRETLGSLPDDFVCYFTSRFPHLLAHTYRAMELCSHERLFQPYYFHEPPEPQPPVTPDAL
UniProt Q9Y616: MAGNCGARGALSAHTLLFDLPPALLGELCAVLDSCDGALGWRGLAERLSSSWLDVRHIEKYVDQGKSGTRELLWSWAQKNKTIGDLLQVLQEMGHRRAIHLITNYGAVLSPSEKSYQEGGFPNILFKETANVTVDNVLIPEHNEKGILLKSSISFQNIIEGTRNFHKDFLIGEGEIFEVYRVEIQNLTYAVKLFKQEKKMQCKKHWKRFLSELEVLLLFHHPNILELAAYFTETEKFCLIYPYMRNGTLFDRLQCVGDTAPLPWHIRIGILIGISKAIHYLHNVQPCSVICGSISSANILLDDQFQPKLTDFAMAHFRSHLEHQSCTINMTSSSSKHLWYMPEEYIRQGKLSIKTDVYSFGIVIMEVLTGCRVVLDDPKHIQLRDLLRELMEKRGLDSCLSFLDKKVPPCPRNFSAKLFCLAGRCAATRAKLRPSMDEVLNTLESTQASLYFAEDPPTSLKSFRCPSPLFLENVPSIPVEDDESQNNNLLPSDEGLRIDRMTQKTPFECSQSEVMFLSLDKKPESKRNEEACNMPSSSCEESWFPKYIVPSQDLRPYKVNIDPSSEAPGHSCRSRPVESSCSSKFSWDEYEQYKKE
UniProt O96017, whole entry: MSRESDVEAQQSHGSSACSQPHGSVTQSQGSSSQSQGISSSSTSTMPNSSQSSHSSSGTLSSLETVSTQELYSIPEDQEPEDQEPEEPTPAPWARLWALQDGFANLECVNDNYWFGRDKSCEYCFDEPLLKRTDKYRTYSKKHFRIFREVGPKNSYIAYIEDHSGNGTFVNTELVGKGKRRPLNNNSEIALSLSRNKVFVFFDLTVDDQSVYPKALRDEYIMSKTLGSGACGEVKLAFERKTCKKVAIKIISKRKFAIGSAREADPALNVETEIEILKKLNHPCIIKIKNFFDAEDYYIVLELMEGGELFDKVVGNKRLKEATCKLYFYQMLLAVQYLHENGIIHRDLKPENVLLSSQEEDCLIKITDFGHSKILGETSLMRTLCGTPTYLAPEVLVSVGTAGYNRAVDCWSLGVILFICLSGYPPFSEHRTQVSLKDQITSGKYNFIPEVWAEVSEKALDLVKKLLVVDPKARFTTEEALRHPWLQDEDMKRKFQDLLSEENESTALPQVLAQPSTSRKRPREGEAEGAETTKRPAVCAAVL
UniProt Q16620, whole entry, looked up: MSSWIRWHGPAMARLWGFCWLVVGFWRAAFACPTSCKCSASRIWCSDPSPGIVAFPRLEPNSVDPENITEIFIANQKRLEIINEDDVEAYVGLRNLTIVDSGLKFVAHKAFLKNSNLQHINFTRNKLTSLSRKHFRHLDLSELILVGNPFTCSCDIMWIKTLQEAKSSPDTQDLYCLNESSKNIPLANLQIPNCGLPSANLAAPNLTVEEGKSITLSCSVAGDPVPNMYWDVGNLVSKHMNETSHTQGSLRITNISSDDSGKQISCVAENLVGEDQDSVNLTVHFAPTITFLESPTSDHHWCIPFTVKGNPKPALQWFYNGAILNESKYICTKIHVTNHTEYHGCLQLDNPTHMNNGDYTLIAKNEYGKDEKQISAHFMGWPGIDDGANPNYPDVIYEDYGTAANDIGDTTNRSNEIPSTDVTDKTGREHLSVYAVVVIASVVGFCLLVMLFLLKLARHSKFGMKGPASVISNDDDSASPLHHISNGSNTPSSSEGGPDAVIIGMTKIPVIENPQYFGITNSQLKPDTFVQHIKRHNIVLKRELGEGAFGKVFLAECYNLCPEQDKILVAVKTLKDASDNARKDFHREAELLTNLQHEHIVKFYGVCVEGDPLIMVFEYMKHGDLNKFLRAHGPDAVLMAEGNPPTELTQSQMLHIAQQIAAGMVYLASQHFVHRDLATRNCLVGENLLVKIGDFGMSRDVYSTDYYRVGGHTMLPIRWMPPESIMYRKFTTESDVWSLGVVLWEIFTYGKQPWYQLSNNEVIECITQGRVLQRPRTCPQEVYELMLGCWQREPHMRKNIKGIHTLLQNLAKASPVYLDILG
UniProt P21802, whole entry, looked up: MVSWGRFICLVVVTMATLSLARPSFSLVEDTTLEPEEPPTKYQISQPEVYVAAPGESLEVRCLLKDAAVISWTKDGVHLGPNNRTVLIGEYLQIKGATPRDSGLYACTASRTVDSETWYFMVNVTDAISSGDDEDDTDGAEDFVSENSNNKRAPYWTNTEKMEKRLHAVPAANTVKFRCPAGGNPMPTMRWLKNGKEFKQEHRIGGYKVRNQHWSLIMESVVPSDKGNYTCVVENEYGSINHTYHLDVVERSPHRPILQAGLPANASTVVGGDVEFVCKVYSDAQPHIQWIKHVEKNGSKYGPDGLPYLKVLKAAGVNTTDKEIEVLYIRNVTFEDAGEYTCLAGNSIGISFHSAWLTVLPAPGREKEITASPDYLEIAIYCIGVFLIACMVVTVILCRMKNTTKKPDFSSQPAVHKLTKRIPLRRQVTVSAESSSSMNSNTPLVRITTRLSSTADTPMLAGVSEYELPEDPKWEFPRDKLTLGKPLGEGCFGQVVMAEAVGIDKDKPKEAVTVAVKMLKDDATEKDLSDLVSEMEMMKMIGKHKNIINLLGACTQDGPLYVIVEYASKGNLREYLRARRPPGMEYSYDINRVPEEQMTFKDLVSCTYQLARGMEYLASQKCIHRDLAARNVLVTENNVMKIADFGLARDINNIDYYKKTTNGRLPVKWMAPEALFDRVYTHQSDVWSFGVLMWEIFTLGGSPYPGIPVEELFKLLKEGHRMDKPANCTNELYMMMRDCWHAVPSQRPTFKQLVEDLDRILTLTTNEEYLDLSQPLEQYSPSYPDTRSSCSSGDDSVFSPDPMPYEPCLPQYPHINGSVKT
UniProt Q08345: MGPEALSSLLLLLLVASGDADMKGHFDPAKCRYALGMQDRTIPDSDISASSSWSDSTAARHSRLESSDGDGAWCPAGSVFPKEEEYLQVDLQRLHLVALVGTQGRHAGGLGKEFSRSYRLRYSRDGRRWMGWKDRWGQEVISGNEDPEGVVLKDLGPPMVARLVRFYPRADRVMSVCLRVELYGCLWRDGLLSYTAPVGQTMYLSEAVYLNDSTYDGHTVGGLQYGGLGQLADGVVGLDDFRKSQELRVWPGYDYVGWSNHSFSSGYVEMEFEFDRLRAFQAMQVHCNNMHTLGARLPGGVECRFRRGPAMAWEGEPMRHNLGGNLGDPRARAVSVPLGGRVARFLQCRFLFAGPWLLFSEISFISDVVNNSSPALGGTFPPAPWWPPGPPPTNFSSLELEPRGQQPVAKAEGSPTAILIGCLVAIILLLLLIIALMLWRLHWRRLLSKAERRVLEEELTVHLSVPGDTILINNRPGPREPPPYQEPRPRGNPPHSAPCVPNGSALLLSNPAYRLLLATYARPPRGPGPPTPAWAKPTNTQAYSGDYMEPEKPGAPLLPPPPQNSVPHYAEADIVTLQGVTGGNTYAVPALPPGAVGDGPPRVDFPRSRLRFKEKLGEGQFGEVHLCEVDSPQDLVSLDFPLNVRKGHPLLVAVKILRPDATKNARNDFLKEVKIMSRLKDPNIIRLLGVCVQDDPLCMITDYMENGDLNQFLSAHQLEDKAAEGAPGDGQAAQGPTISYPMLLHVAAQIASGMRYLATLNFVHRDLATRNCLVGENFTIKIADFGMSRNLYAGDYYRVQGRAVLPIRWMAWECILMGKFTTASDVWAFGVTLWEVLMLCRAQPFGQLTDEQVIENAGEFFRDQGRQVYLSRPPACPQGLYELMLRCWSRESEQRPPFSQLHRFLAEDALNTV
UniProt Q6PHR2: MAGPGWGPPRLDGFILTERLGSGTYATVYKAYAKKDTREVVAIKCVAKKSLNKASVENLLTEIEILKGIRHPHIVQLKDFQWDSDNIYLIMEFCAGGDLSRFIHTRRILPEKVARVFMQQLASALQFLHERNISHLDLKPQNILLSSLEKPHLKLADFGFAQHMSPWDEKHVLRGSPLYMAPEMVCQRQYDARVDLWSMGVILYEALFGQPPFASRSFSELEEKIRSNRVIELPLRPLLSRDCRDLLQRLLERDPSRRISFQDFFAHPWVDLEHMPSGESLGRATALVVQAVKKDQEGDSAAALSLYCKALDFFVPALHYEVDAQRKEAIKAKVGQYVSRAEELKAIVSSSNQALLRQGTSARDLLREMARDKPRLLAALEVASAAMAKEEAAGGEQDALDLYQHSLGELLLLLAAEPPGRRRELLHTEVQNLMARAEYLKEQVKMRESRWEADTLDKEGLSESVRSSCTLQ

Key:
Experiment in all cases: number of time points (of 5) at which kinase-Nluc abundance scored as decreased, DMSO-normalised (count); higher = more persistent destabilization
[1] = compound: CC(=O)Nc1cccc(-n2c(=O)n(C3CC3)c(=O)c3c(Nc4ccc(I)cc4F)n(C)c(=O)c(C)c32)c1 [Trametinib]; details: 10 µM; K562; 2-18 h
[2] = compound: CC(=O)c1c(C)c2cnc(Nc3ccc(N4CCNCC4)cn3)nc2n(C2CCCC2)c1=O [Palbociclib (isethionate)]; details: 10 µM; K562; 2-18 h
[3] = compound: CC(=O)c1c(C)c2cnc(Nc3ccc(N4CCNCC4)cn3)nc2n(C2CCCC2)c1=O [Palbociclib (monohydrochloride)]; details: 10 µM; K562; 2-18 h
[4] = compound: CC(C)(C)n1nc(-c2cccc3ccccc23)c2c(N)ncnc21 [1-Naphthyl PP1 (hydrochloride)]; details: 10 µM; K562; 2-18 h
[5] = compound: CC(C)(C)n1nc(-c2cccc3ccccc23)c2c(N)ncnc21 [1-Naphthyl PP1]; details: 10 µM; K562; 2-18 h
[6] = compound: CC(C)NC[C@@H](C(=O)N1CCN(c2ncnc3c2[C@H](C)C[C@H]3O)CC1)c1ccc(Cl)cc1 [Ipatasertib (dihydrochloride)]; details: 10 µM; K562; 2-18 h
[7] = compound: CC(C)NC[C@@H](C(=O)N1CCN(c2ncnc3c2[C@H](C)C[C@H]3O)CC1)c1ccc(Cl)cc1 [Ipatasertib]; details: 10 µM; K562; 2-18 h
[8] = compound: CC(C)Nc1cc(-c2c[nH]c(C(=O)N[C@H](CO)c3cccc(Cl)c3)c2)c(Cl)cn1 [Ulixertinib (hydrochloride)]; details: 10 µM; K562; 2-18 h
[9] = compound: CC(C)Nc1cc(-c2c[nH]c(C(=O)N[C@H](CO)c3cccc(Cl)c3)c2)c(Cl)cn1 [Ulixertinib]; details: 10 µM; K562; 2-18 h
[10] = compound: CC(C)Oc1ccc(-c2nn([C@@H](C)c3oc4ccc(F)cc4c(=O)c3-c3cccc(F)c3)c3ncnc(N)c23)cc1F [Umbralisib (hydrochloride)]; details: 2.5 µM; K562; 2-18 h
[11] = compound: CC(C)Oc1ccc(-c2nn([C@@H](C)c3oc4ccc(F)cc4c(=O)c3-c3cccc(F)c3)c3ncnc(N)c23)cc1F [Umbralisib]; details: 2.5 µM; K562; 2-18 h
[12] = compound: CCCC(=O)Nc1ncnc2c1ncn2[C@@H]1O[C@@H]2COP(=O)(O)O[C@H]2[C@H]1OC(=O)CCC [Bucladesine (calcium)]; details: 10 µM; K562; 2-18 h
[13] = compound: CCCC(=O)Nc1ncnc2c1ncn2[C@@H]1O[C@@H]2COP(=O)(O)O[C@H]2[C@H]1OC(=O)CCC [Bucladesine (sodium)]; details: 10 µM; K562; 2-18 h
[14] = compound: CCCCCCCCc1ccc(CCC(N)(CO)CO)cc1 [Fingolimod (hydrochloride)]; details: 2.5 µM; K562; 2-18 h
[15] = compound: CCCCCCCCc1ccc(CCC(N)(CO)CO)cc1 [Fingolimod]; details: 2.5 µM; K562; 2-18 h
[16] = compound: CCN(CC)CC(=O)Nc1c(C)cccc1C [Lidocaine (hydrochloride)]; details: 10 µM; K562; 2-18 h
[17] = compound: CCN(CC)CC(=O)Nc1c(C)cccc1C [Lidocaine]; details: 10 µM; K562; 2-18 h
[18] = compound: CCN(CC)Cc1ccc(OC)c(-c2cc3c(-c4ccc(C(=O)O)c(C(C)C)c4)ccnc3[nH]2)c1; details: K562, 2-18 h
[19] = compound: CCS(=O)(=O)N1CC(CC#N)(n2cc(-c3ncnc4[nH]ccc34)cn2)C1 [Baricitinib (phosphate)]; details: 10 µM; K562; 2-18 h
[20] = compound: CCS(=O)(=O)N1CC(CC#N)(n2cc(-c3ncnc4[nH]ccc34)cn2)C1 [Baricitinib]; details: 10 µM; K562; 2-18 h

Measured: number of time points

EPHA2 (UniProt P29317)
0: [2] | [3] | [4] | [5] | [6] | [7] | [8] | [9] | [10] | [11] | [12] | [13] | [14] | [15] | [16] | [17] | [18]; 2.5 µM | [18]; 10 µM | [19] | [20]
2: [1]

LYN (UniProt P07948)
0: [1] | [2] | [3] | [4] | [5] | [6] | [7] | [8] | [9] | [10] | [11] | [12] | [13] | [14] | [15] | [16] | [17] | [18]; 2.5 µM | [18]; 10 µM | [19] | [20]

MAPK1 (UniProt P28482)
0: [1] | [2] | [3] | [4] | [5] | [6] | [7] | [8] | [9] | [10] | [11] | [12] | [13] | [14] | [15] | [16] | [17] | [18]; 2.5 µM | [18]; 10 µM | [19] | [20]

BRAF_V600E
1: [18]; 10 µM
2: [1] | [9] | [18]; 2.5 µM
0: [2] | [3] | [4] | [5] | [6] | [7] | [8] | [10] | [11] | [12] | [13] | [14] | [15] | [16] | [17] | [19] | [20]

ERN1 (UniProt O75460)
0: [1] | [2] | [3] | [4] | [5] | [6] | [7] | [8] | [9] | [10] | [11] | [12] | [13] | [14] | [15] | [16] | [17] | [18]; 2.5 µM | [18]; 10 µM | [19] | [20]

IRAK3 (UniProt Q9Y616)
0: [1] | [3] | [4] | [5] | [6] | [7] | [8] | [10] | [11] | [12] | [13] | [14] | [15] | [16] | [17] | [19] | [20]
1: [18]; 2.5 µM | [18]; 10 µM
2: [2]
4: [9]

CHEK2 (UniProt O96017)
0: [1] | [2] | [3] | [4] | [5] | [6] | [7] | [8] | [9] | [10] | [11] | [12] | [13] | [14] | [15] | [16] | [17] | [18]; 2.5 µM | [18]; 10 µM | [19] | [20]

NTRK2 (UniProt Q16620)
0: [1] | [2] | [3] | [4] | [5] | [8] | [9] | [10] | [11] | [12] | [13] | [15] | [16] | [17] | [18]; 2.5 µM | [18]; 10 µM | [19] | [20]

FLT3 (UniProt P36888)
4: [2]
0: [1] | [3] | [4] | [5] | [6] | [7] | [8] | [9] | [10] | [11] | [12] | [13] | [14] | [15] | [16] | [17] | [18]; 2.5 µM | [18]; 10 µM | [19] | [20]

FGFR2 (UniProt P21802)
0: [3] | [4] | [5] | [6] | [7] | [8] | [9] | [10] | [11] | [12] | [13] | [14] | [15] | [16] | [17] | [18]; 2.5 µM | [18]; 10 µM | [19] | [20]
3: [2]
2: [1]

EGFR_L858R (UniProt P00533)
0: [1] | [3] | [4] | [5] | [6] | [7] | [8] | [9] | [10] | [11] | [12] | [13] | [14] | [15] | [16] | [17] | [18]; 2.5 µM | [18]; 10 µM | [19] | [20]
1: [2]

RAF1 (UniProt P04049)
0: [1] | [3] | [4] | [5] | [6] | [7] | [8] | [9] | [10] | [11] | [12] | [13] | [14] | [15] | [16] | [17] | [18]; 2.5 µM | [18]; 10 µM | [19] | [20]
1: [2]

SYK (UniProt P43405)
0: [1] | [2] | [3] | [4] | [5] | [6] | [7] | [8] | [9] | [10] | [11] | [12] | [13] | [14] | [15] | [16] | [17] | [18]; 2.5 µM | [18]; 10 µM | [19] | [20]

DDR1 (UniProt Q08345)
0: [1] | [3] | [4] | [5] | [6] | [7] | [8] | [9] | [10] | [11] | [12] | [13] | [14] | [15] | [16] | [17] | [18]; 2.5 µM | [18]; 10 µM | [19] | [20]
3: [2]

CDK2 (UniProt P24941)
4: [1]
0: [2] | [3] | [4] | [5] | [6] | [7] | [8] | [9] | [10] | [11] | [12] | [13] | [14] | [15] | [16] | [17] | [18]; 2.5 µM | [18]; 10 µM | [19] | [20]

ULK3 (UniProt Q6PHR2)
0: [1] | [3] | [4] | [5] | [6] | [7] | [9] | [10] | [11] | [12] | [13] | [15] | [16] | [17] | [18]; 2.5 µM | [18]; 10 µM | [19] | [20]
1: [2] | [8] | [14]

INSRR (UniProt P14616)
0: [1] | [2] | [3] | [4] | [5] | [6] | [7] | [8] | [9] | [10] | [11] | [12] | [13] | [14] | [15] | [16] | [17] | [18]; 2.5 µM | [18]; 10 µM | [19] | [20]

CSNK1A1 (UniProt P48729)
0: [4] | [5] | [6] | [7] | [8] | [9] | [10] | [11] | [12] | [13] | [14] | [15] | [16] | [17] | [18]; 2.5 µM | [18]; 10 µM | [19] | [20]
2: [1]

Quoted from above (2 entries):
CDK2 (UniProt P24941)
4: [1]
0: [2] | [3] | [4] | [5] | [6] | [7] | [8] | [9] | [10] | [11] | [12] | [13] | [14] | [15] | [16] | [17] | [18]; 2.5 µM | [18]; 10 µM | [19] | [20]

ULK3 (UniProt Q6PHR2)
0: [1] | [3] | [4] | [5] | [6] | [7] | [9] | [10] | [11] | [12] | [13] | [15] | [16] | [17] | [18]; 2.5 µM | [18]; 10 µM | [19] | [20]
1: [2] | [8] | [14]
